Measured data: PubChem BioAssay AID1224829 (NIAID, 2016)
Assay: 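Secondary check of hits that alter LPS-induced p65 translocation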 (follow-up of hits). System: mouse RAW264.7 G9 macrophage reporter cells. Reagents: single siRNA against mouse genes, 100 nM. Duration: 2 days of siRNA knock-down, then 40 min of LPS before fixing. Conditions: LPS (Salmonella minnesota R595) at 10 ng/ml. Detection: 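Imaging of GFP-p65 after 40 min of LPS; nuclear over perinuclear ring intensity ratio, scaled to plate median and non-targeting control wells, given as z-score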. Direction: p65 translocation z-score and gene median z-score, per vendor: higher = more nuclear NF-kappaB p65 after LPS. Hit rule: 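An siRNA is called active when the mean z-score of its two replicates is above 2 or below -2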. Meaning of the calls: active = changed p65 translocation (either direction); inactive = no clear change.
In all, the deposit lists about 3,800 reagents; shown is a random part of them. 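Calls cover raised and lowered translocation; gene median uses one vendor's three siRNAs; qiagen siRNAs acted more weakly than ambion siRNAs.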 Reagents against one gene are numbered here.

| gene | reagent no. | siRNA vendor or control pool | p65 translocation z-score, replicate mean | p65 translocation z-score, replicate 1 | p65 translocation z-score, replicate 2 | gene median z-score, per vendor | call |
| --- | --- | --- | --- | --- | --- | --- | --- |
| Bambi | 1 | ambion single siRNA | -2.32 | -2.94 | -1.69 | -2.64 | active |
| Bambi | 2 | ambion single siRNA | -2.19 | -2.05 | -2.34 | -2.64 | active |
| Bambi | 3 | ambion single siRNA | -3.91 | -4.53 | -3.3 | -2.64 | active |
| Bambi | 4 | qiagen single siRNA | 0.182 | -0.236 | 0.601 | -0.236 | inactive |
| Bambi | 5 | qiagen single siRNA | -0.558 | -1.27 | 0.159 | -0.236 | inactive |
| Bambi | 6 | qiagen single siRNA | -2.67 | -2.67 | – | -0.236 | active |
| Sox11 | 1 | ambion single siRNA | -0.304 | -1.37 | 0.761 | -1.79 | inactive |
| Sox11 | 2 | ambion single siRNA | -1.87 | -1.94 | -1.79 | -1.79 | inactive |
| Sox11 | 3 | ambion single siRNA | -3.26 | -3.26 | – | -1.79 | active |
| Sox11 | 4 | qiagen single siRNA | -2.22 | 0.0398 | -4.48 | -1.1 | active |
| Sox11 | 5 | qiagen single siRNA | -2.08 | -3.07 | -1.1 | -1.1 | active |
| Sox11 | 6 | qiagen single siRNA | 8.63 | 8.63 | – | -1.1 | active |

3 entries from above, ordered by “p65 translocation z-score, replicate mean”, lowest first.
| gene | reagent no. | siRNA vendor or control pool | p65 translocation z-score, replicate mean | p65 translocation z-score, replicate 1 | p65 translocation z-score, replicate 2 | gene median z-score, per vendor | call |
| --- | --- | --- | --- | --- | --- | --- | --- |
| Bambi | 6 | qiagen single siRNA | -2.67 | -2.67 | – | -0.236 | active |
| Sox11 | 2 | ambion single siRNA | -1.87 | -1.94 | -1.79 | -1.79 | inactive |
| Sox11 | 1 | ambion single siRNA | -0.304 | -1.37 | 0.761 | -1.79 | inactive |

The results go on.
| gene | reagent no. | siRNA vendor or control pool | p65 translocation z-score, replicate mean | p65 translocation z-score, replicate 1 | p65 translocation z-score, replicate 2 | gene median z-score, per vendor | call |
| --- | --- | --- | --- | --- | --- | --- | --- |
| Il24 | 1 | ambion single siRNA | 1.56 | 3.12 | -0.0132 | -2.53 | inactive |
| Il24 | 2 | ambion single siRNA | -3.65 | -3.94 | -3.37 | -2.53 | active |
| Il24 | 3 | ambion single siRNA | -2.53 | -1.96 | -3.1 | -2.53 | active |
| Il24 | 4 | qiagen single siRNA | -1.01 | -0.389 | -1.64 | 0.15 | inactive |
| Il24 | 5 | qiagen single siRNA | 0.69 | 0.69 | – | 0.15 | inactive |
| Il24 | 6 | qiagen single siRNA | 3.05 | 3.05 | – | 0.15 | active |
| Prickle3 | 1 | ambion single siRNA | -0.175 | 1.12 | -1.47 | -3.04 | inactive |
| Prickle3 | 2 | ambion single siRNA | -4.42 | -4.38 | -4.47 | -3.04 | active |
| Prickle3 | 3 | ambion single siRNA | -3.04 | -2.33 | -3.75 | -3.04 | active |
| Prickle3 | 4 | qiagen single siRNA | -2.01 | 0.0154 | -4.04 | 0.473 | active |
| Prickle3 | 5 | qiagen single siRNA | 1.8 | 0.93 | 2.68 | 0.473 | inactive |
| Prickle3 | 6 | qiagen single siRNA | 1.31 | -0.407 | 3.02 | 0.473 | inactive |
